Paper PMC10463480
These are yes or no findings as the source states them, for the method shown. Binding seen in cells or lysates may run through a third protein. Some results given as binding are weak or reduced against the parent protein; the word gives no strength.

Protein sequences, listed by entry. Tags and fused reporters are not part of them.
UniProt P46937: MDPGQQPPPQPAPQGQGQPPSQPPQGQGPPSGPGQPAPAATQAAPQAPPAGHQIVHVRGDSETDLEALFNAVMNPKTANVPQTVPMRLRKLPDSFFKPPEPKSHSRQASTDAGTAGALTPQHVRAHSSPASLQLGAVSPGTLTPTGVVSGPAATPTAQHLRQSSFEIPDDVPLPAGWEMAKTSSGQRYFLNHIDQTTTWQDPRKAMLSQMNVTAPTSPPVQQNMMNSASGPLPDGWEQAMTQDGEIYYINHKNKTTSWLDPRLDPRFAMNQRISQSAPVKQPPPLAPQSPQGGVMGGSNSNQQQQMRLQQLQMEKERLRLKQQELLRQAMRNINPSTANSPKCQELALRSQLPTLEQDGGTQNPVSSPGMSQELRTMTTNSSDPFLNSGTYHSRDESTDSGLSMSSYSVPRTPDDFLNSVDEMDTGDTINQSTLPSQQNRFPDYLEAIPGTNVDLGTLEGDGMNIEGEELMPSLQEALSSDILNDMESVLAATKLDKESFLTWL
UniProt Q5T4S7: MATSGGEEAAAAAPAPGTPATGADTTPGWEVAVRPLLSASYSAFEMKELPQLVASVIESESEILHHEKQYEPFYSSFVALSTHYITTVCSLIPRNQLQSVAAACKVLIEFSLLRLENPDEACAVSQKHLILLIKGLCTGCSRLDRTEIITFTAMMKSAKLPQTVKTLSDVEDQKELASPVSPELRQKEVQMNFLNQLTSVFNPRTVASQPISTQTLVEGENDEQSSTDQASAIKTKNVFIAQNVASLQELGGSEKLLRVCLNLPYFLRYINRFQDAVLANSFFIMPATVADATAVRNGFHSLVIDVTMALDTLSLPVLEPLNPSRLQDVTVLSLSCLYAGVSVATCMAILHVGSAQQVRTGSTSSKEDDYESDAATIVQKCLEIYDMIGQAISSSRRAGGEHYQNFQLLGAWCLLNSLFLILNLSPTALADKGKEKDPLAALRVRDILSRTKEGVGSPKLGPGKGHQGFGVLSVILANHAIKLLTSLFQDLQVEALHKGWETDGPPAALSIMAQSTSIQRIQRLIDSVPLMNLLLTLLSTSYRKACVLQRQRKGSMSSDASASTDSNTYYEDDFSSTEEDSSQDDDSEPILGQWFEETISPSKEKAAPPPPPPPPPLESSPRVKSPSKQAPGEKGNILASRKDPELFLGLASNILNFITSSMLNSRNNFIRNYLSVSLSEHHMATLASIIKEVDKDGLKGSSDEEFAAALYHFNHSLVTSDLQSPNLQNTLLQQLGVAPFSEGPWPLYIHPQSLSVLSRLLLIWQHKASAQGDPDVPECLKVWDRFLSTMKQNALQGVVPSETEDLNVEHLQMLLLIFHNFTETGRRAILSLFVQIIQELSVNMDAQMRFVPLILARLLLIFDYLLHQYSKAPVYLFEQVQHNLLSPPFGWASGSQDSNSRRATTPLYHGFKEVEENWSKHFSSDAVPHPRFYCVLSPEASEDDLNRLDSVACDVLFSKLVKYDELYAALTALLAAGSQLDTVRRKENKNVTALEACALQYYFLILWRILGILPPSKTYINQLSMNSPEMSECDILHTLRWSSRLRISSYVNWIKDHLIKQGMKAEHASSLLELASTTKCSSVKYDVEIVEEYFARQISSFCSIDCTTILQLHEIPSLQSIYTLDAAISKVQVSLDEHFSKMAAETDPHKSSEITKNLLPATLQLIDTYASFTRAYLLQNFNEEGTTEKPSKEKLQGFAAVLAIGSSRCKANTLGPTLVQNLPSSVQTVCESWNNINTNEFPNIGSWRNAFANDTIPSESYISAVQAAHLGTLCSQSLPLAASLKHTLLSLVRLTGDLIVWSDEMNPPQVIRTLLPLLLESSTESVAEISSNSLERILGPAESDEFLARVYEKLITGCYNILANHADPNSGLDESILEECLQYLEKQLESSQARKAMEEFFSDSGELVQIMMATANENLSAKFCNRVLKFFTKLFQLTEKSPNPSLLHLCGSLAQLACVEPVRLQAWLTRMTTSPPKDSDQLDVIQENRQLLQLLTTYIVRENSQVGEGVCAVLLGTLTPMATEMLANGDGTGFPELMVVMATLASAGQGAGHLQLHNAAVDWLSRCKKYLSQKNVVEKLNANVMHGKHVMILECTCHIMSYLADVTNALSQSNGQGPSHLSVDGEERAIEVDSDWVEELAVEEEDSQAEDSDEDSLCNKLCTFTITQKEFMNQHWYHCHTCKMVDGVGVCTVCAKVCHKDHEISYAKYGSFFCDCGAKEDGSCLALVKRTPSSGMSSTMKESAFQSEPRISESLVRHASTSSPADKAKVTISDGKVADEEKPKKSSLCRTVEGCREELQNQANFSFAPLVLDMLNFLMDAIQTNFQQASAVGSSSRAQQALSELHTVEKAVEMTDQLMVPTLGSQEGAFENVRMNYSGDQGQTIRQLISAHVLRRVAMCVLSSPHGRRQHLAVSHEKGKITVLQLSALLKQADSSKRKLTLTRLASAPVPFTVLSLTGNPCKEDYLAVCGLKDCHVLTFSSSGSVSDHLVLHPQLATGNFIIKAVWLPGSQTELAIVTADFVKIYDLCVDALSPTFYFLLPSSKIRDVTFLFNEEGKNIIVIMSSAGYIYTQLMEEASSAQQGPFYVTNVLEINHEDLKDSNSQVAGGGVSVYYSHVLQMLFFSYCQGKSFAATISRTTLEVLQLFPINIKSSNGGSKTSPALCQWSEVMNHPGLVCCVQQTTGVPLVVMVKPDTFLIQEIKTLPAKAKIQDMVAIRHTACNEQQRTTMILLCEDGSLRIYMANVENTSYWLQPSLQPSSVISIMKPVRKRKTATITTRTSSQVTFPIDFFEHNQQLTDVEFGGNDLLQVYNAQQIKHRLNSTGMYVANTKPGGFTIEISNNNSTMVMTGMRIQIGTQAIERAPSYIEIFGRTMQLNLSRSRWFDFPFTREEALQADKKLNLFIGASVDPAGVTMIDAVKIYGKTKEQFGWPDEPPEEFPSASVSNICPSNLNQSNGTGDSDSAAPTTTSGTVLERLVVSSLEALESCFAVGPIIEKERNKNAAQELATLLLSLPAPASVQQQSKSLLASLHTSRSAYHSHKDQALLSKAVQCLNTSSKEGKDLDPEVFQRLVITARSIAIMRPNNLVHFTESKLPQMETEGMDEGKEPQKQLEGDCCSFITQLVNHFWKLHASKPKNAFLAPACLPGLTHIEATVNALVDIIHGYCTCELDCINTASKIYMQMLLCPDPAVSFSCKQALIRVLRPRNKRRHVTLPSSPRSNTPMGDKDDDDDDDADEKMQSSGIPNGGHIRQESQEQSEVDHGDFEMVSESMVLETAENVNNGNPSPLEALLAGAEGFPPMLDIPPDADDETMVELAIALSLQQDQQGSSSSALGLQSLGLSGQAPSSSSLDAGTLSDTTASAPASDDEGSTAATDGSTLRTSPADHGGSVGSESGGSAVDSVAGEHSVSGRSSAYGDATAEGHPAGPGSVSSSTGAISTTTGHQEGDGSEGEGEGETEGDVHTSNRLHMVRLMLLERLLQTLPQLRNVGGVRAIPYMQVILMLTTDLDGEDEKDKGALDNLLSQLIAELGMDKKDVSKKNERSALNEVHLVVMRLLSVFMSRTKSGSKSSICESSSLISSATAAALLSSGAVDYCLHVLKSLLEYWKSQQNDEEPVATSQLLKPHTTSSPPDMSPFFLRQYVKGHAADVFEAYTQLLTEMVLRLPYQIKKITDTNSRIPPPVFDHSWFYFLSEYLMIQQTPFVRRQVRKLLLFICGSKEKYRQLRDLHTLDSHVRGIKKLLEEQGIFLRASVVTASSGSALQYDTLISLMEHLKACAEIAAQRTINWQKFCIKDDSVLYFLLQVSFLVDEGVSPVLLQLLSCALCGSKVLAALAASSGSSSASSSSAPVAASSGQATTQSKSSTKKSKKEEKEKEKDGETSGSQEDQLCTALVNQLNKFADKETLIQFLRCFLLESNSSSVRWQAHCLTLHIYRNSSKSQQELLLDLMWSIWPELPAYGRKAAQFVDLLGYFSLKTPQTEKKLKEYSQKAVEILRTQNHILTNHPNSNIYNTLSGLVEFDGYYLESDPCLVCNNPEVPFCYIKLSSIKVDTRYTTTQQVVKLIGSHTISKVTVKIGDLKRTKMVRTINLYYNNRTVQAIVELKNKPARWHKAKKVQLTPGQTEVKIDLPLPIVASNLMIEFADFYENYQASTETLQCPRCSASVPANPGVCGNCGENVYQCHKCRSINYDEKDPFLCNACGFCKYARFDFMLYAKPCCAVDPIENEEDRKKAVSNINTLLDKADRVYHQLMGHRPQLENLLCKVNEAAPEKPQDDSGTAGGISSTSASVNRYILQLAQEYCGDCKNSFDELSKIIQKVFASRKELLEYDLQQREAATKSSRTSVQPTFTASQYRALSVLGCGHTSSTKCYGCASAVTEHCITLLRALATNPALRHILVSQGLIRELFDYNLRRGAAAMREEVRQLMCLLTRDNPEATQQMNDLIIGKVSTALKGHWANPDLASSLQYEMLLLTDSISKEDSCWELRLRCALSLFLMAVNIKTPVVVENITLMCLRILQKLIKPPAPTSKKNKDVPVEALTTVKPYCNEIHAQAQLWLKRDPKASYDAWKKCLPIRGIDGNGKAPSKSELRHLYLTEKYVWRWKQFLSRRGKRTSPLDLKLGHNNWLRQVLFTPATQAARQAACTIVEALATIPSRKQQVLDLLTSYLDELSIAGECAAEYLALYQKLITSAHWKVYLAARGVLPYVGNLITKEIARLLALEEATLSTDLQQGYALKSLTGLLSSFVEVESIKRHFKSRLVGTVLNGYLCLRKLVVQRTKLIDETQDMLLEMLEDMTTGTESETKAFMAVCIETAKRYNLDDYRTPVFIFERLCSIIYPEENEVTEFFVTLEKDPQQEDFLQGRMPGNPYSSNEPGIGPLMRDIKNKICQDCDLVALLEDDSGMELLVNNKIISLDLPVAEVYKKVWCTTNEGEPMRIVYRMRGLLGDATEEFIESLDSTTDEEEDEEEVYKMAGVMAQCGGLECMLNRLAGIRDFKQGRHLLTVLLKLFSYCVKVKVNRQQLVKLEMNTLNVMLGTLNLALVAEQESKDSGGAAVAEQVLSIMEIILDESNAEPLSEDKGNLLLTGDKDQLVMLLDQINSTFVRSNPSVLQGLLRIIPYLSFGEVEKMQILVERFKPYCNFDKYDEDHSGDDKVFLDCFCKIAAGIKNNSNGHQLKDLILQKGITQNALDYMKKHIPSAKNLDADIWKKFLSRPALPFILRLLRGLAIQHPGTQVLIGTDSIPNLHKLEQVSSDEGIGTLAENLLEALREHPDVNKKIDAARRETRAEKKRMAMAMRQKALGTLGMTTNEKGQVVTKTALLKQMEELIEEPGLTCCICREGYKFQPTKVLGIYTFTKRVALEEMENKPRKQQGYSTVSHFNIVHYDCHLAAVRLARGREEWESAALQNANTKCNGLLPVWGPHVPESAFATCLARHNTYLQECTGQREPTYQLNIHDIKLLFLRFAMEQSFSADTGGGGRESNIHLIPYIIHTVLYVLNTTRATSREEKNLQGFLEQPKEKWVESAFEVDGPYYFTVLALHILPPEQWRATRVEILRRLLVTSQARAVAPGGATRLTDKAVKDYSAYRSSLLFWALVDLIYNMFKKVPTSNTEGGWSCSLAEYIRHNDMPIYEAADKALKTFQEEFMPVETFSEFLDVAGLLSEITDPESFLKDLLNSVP

Target: Yes-associated protein (YAP) (human (endogenous in EndoSCs of IUA patients)) (UniProt P46937)
Assay: co-IP; lysate of EndoSCs from IUA patients, MG-132 added 4 h before collection; YAP antibody at 4 °C overnight, Protein A + G Agarose beads at 4 °C for 12 h; Western blot

binding: binds
Substance: UBR4 (from UniProt Q5T4S7 1-5183)
